Test results taken from PubChem BioAssay AID1347426 (Functional Genomics Laboratory (NCATS/FGL), 2020).
Out of some 31,000 sequences screened, about 1,400 (4.5%) were called active.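 How the source made its calls: active means median seed-adjusted z-score above 1 or below -1; inactive means the rest.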 This is one part of the list.

experiment: Novel Modifiers of Survival Motor Neuron (SMN) Protein: Gene Identification via Genome-wide siRNA Screen; conditions: HEK293T SMN2-luciferase reporter, siRNA knockdown, 72 h; actives lie on both sides;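 further: luminescence tracks full-length SMN protein made from the SMN2 reporter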
Method in brief: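 Genome-wide siRNA screen (10418 genes, 3 siRNAs each, 1 pmol per well) by reverse transfection in HEK293T cells stably carrying an SMN2-luciferase reporter; luminescence after 72 hours, normalized to negative-control siRNA, log10-transformed, MAD-scored.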

With GGUUAUCUCUGGAGGACCATT against PPRC1 as the sequence, how does the median seed-adjusted z-score read?
The median seed-adjusted z-score was inactive: 0.

For GGAGAAAGGUUCGUUAAAATT against PTPN1, which median seed-adjusted z-score is on record?
Its median seed-adjusted z-score is inactive: 0.05.

For GGGAAUCAGCUCACAGAGATT against PODN, which median seed-adjusted z-score is on record?
Its median seed-adjusted z-score is inactive: 0.589.

With CUACUGCAAGUACUGCUUUTT against B9D1 as the sequence, how does the median seed-adjusted z-score read?
Its median seed-adjusted z-score is inactive: -0.161.

Which median seed-adjusted z-score does the source give for GGUUUUGACCAGACCAUUATT against LSM8 here?
Its median seed-adjusted z-score is inactive: -0.44.

With CGGAAGAACUUUGCUCGGATT against PNCK as the sequence, how does the median seed-adjusted z-score read?
Its median seed-adjusted z-score is inactive: 0.

With CGAUAUACCUAUAACGACATT against CR2 as the sequence, how does the median seed-adjusted z-score read?
The median seed-adjusted z-score was inactive: 0.71.

Which median seed-adjusted z-score does the source give for CAUAGGAUCUUCAUGAACATT against GALNT10 here?
The median seed-adjusted z-score was inactive: 0.

With GCACUAUCCUCAACAAGAUTT against RAB4B as the sequence, how does the median seed-adjusted z-score read?
Its median seed-adjusted z-score is inactive: -0.207.

With CCAGCAAGCCGACAAAUGATT against BTBD11 as the sequence, how does the median seed-adjusted z-score read?
Its median seed-adjusted z-score is inactive: -0.00434.

For GGCUUCUUCUCAACCUGUATT against DAB2, which median seed-adjusted z-score is on record?
Its median seed-adjusted z-score is inactive: 0.678.

Which median seed-adjusted z-score does the source give for GGAACUACCAGAUCGGGAATT against MYO9B here?
The median seed-adjusted z-score was inactive: -0.0287.

For CCGAUACCCUUUAACUAUATT against CA8, which median seed-adjusted z-score is on record?
The median seed-adjusted z-score was inactive: 0.172.

With CCGGUCUGCUUUUGCGUAATT against IL13RA2 as the sequence, how does the median seed-adjusted z-score read?
The median seed-adjusted z-score was inactive: 0.113.

Which median seed-adjusted z-score does the source give for GCUCAUUAAGCAUCAAAGATT against ZNF605 here?
Its median seed-adjusted z-score is inactive: -0.596.

Which median seed-adjusted z-score does the source give for CCACGAAAAUUACAUAAUUTT against KAL1 here?
The median seed-adjusted z-score was inactive: 0.0824.

For CAGAUGUCAUGAAUCAAGATT against RPUSD2, which median seed-adjusted z-score is on record?
Its median seed-adjusted z-score is inactive: -0.215.

Which median seed-adjusted z-score does the source give for GCCUCCGACUGGUUUGACATT against ST3GAL2 here?
The median seed-adjusted z-score was inactive: -0.139.

For CCAAGCACUCCUUACCAUATT against PPP1R2, which median seed-adjusted z-score is on record?
Its median seed-adjusted z-score is inactive: 0.208.

Which median seed-adjusted z-score does the source give for GAUGAUGCCUAGUAAAUUATT against MBD2 here?
Its median seed-adjusted z-score is inactive: -0.067.

Which median seed-adjusted z-score does the source give for AAUUGAGGAAUACAAAAGATT against PAX3 here?
Its median seed-adjusted z-score is inactive: 0.0223.

Which median seed-adjusted z-score does the source give for GCAGACAACUCCUCGAUGATT against GPR68 here?
Its median seed-adjusted z-score is inactive: -0.0233.

For GCAUCGAAUUUGCAGAACATT against PNN, which median seed-adjusted z-score is on record?
The median seed-adjusted z-score was active: 1.29.

With CCCUGAAGGUUACCUCUUUTT against MGRN1 as the sequence, how does the median seed-adjusted z-score read?
The median seed-adjusted z-score was inactive: -0.318.

For AGAGCGUGAGUGGGCAGAATT against CBFA2T3, which median seed-adjusted z-score is on record?
The median seed-adjusted z-score was inactive: -0.135.

For GAGCUGCUAUCAGACAAAUTT against ETS2, which median seed-adjusted z-score is on record?
The median seed-adjusted z-score was inactive: 0.636.

Which median seed-adjusted z-score does the source give for CAGUGACCUUUCUAAGACATT against ADAMTS6 here?
The median seed-adjusted z-score was inactive: 0.023.

Which median seed-adjusted z-score does the source give for CCGUCACCAUCCUCAUCUATT against PORCN here?
Its median seed-adjusted z-score is inactive: 0.214.

Which median seed-adjusted z-score does the source give for CGAGUGCAGUGUCAAGUUUTT against ZNF423 here?
Its median seed-adjusted z-score is inactive: 0.0134.

With ACAUCGAACUAAGACCUGATT against KCNK6 as the sequence, how does the median seed-adjusted z-score read?
Its median seed-adjusted z-score is inactive: -0.199.

With GCAGUUUGGUGUUUACCCATT against ZNF536 as the sequence, how does the median seed-adjusted z-score read?
The median seed-adjusted z-score was inactive: -0.295.

Which median seed-adjusted z-score does the source give for CUAUAUGACCCAUACCAUUTT against GLB1L here?
The median seed-adjusted z-score was inactive: -0.263.

Which median seed-adjusted z-score does the source give for CUAUCACUAUUCAAGGCAATT against SEMA6D here?
Its median seed-adjusted z-score is inactive: 0.0624.

For CUUCAUUGAUUGUAUCAGATT against PREPL, which median seed-adjusted z-score is on record?
Its median seed-adjusted z-score is inactive: -0.459.

With CGAUCACAACUGAAACUCATT against PDE8A as the sequence, how does the median seed-adjusted z-score read?
Its median seed-adjusted z-score is inactive: 0.302.

With CCAACAUUGCCUACCCUAATT against SLC5A9 as the sequence, how does the median seed-adjusted z-score read?
The median seed-adjusted z-score was inactive: 0.15.

For GUGGUCACUUGGUUCCAGATT against LBX2, which median seed-adjusted z-score is on record?
The median seed-adjusted z-score was inactive: 0.538.

Which median seed-adjusted z-score does the source give for GCCGUAGACAGAAUCAUGATT against REEP6 here?
Its median seed-adjusted z-score is inactive: -0.348.

With GCCUGAUUACUGUUAUGCATT against DHX8 as the sequence, how does the median seed-adjusted z-score read?
The median seed-adjusted z-score was inactive: -0.251.

With ACACUACGGCUGAAUCUCATT against EMILIN1 as the sequence, how does the median seed-adjusted z-score read?
Its median seed-adjusted z-score is inactive: 0.

With GGAACACUUACUAUACUAATT against ARL5A as the sequence, how does the median seed-adjusted z-score read?
Its median seed-adjusted z-score is inactive: 0.

With GGUGAUUCUUGAUCAGAUUTT against LIPM as the sequence, how does the median seed-adjusted z-score read?
The median seed-adjusted z-score was inactive: -0.00856.

For GGGAUAAGCUGAUAAAGGATT against NDUFS5, which median seed-adjusted z-score is on record?
Its median seed-adjusted z-score is active: -1.35.

Which median seed-adjusted z-score does the source give for GGUACUACGUUGAAAGACUTT against TGFBR1 here?
The median seed-adjusted z-score was inactive: 0.226.

Which median seed-adjusted z-score does the source give for GGACUGUAAUCUAAAUCCATT against ZFYVE9 here?
The median seed-adjusted z-score was inactive: 0.373.

For CUAUGAAGGUUUAAGUAUATT against CAPS2, which median seed-adjusted z-score is on record?
The median seed-adjusted z-score was inactive: 0.135.

Which median seed-adjusted z-score does the source give for GGGUCUCAACUGUGAGUCATT against ARSE here?
Its median seed-adjusted z-score is inactive: 0.705.

With CAGAUUUGGUUUGAGAAUATT against RHOXF2 as the sequence, how does the median seed-adjusted z-score read?
The median seed-adjusted z-score was inactive: -0.331.

Which median seed-adjusted z-score does the source give for GAACUGAGCGAGCAAGUUUTT against COL6A3 here?
Its median seed-adjusted z-score is inactive: 0.341.

For GACUUUCAAGAAUUCAUAUTT against S100A12, which median seed-adjusted z-score is on record?
Its median seed-adjusted z-score is inactive: 0.346.

For CCAUCGUGGUAGAUCCGUUTT against CBL, which median seed-adjusted z-score is on record?
The median seed-adjusted z-score was inactive: -0.417.

With GAACCAAGUCACAAAAGAATT against ADCY2 as the sequence, how does the median seed-adjusted z-score read?
The median seed-adjusted z-score was inactive: 0.173.

Which median seed-adjusted z-score does the source give for CGAGCAAUAUGACCAUCUUTT against CD86 here?
Its median seed-adjusted z-score is inactive: 0.

Which median seed-adjusted z-score does the source give for GCUCGGCUACUGAAAGUCATT against DNALI1 here?
The median seed-adjusted z-score was inactive: 0.699.
